## Primary screen of a compound library

Sequences of proteins named here, by UniProt entry; tags and fusion partners are left off.
UniProt I6X8D2, whole entry: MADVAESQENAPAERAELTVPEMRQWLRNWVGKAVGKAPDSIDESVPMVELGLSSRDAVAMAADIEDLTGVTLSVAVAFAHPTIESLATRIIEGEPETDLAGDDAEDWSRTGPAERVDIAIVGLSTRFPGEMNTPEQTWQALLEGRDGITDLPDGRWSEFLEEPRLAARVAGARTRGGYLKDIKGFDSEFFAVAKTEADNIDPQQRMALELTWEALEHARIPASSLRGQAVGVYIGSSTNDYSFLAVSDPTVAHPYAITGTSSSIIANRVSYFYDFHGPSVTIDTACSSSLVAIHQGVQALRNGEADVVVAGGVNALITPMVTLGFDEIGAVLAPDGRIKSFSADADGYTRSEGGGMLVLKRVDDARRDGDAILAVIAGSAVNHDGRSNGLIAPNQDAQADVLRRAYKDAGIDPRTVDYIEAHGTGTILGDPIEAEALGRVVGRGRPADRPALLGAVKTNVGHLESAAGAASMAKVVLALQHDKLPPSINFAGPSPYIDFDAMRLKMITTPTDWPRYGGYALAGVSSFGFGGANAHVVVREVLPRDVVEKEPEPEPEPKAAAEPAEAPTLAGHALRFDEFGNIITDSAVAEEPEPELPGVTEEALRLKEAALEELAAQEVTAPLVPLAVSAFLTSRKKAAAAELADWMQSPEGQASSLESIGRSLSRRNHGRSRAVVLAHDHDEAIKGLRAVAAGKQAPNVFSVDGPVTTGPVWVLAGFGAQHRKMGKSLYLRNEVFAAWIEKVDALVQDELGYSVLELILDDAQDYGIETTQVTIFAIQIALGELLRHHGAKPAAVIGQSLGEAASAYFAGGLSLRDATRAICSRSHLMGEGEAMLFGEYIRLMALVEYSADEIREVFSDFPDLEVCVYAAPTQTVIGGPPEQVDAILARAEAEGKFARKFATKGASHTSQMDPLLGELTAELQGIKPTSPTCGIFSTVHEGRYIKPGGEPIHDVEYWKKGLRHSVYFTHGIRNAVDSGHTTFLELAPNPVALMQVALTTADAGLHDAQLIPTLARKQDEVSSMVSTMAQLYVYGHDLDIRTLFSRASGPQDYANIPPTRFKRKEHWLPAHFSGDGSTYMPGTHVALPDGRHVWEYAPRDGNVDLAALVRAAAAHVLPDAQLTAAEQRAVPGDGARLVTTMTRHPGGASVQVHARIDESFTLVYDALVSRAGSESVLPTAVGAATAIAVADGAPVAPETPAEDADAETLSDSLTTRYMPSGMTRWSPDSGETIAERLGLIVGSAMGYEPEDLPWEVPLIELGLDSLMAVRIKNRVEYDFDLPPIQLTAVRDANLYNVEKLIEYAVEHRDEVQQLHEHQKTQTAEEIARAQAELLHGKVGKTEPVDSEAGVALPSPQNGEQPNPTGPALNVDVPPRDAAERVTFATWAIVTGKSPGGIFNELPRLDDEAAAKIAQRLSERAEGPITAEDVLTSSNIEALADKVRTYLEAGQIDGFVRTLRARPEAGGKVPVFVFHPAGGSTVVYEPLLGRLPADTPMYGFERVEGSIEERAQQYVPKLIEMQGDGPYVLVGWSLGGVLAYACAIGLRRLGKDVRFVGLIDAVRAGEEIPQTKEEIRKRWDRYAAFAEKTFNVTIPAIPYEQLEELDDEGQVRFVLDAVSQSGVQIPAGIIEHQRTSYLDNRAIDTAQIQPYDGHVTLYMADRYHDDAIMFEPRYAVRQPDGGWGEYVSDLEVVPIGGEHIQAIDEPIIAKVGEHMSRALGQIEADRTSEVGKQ

Measurements from “University of Dundee, Small-Polar-MMV Screening Library” (2021), ChEMBL document CHEMBL3988442.

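Polyketide synthase Pks13, Mycobacterium tuberculosis (UniProt I6X8D2). Enzyme assay of the thioesterase domain of polyketide synthase 13; the read-out is not stated. Concentration: 30 µM. The record gives no direction; the compounds picked for IC50 retests had high values, so higher reads as stronger inhibition. Size under these conditions: about 67,000 compounds, about 300 of them at 50% or above in at least one test.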

Each number is a percent effect as filed.
How 0% and 100% were set is not recorded. Most values in the screen are low, and negative values occur.
Compounds were drawn at random from those tested, without regard to their results.

Compound	Percent Effect
O=C(NCCc1coc(-c2ccc(F)cc2)n1)NC1CC1	-11.15
COCCN(Cc1ccoc1)C(=O)c1c(F)cccc1Cl	-13.48
Cn1nc2c(cc1=O)CN(Cc1coc(-c3cccs3)n1)CC2	6.618
CCN(CC1CCOC1)C(=O)c1cccnc1N1CCOCC1 (stereo unspecified)	-10.62
Cc1nnc2n1CCN(C(C(=O)N1CCCCC1)c1ccccc1)C2 (stereo unspecified)	-15.94
CC(C)NC(=O)c1cnc(Sc2nccn2C)c(Cl)c1	20.15
O=C(NCCCNC(=O)c1cccc(O)c1)Nc1ccc(Cl)cc1	4.529
CC(C)N(CC(=O)O)Cc1cccc(Br)c1	-4.47
COCc1cccc(NC(=O)N(C)Cc2ncc(C)c(OC)c2C)c1	-40.97
CC(C)c1cc(O)nc(C2CCCN2C(=O)C(C)(C)C)n1 (stereo unspecified)	-7.015
Nc1c(N2CCCC2)ncnc1N1CCOCC1	-22.44
Cc1nc(-c2ccccc2)nc2c1CCN(Cc1nccn1C)CC2	-17.02
Nc1ncncc1-c1noc([C@@H]2CCCN2CCCc2ccccc2)n1	-24.14
CCCn1ccc(C(=O)Nc2ccc3c(c2)C(C)(C)C(=O)N3C)n1	-21.08
c1ncn(CC2CN(CCCOc3ccc4c(c3)OCO4)CCO2)n1 (stereo unspecified)	-10.53
Cn1cc(-c2nc(C3CCN(CC4CC4)CC3)cc3c2ncn3C)cn1	6.019
CCS(=O)(=O)N1CC[C@@H]2[C@H](COCC3CC3)CN(C)C(=O)[C@@H]2CC1	-34.66
CC(=O)N(Cc1noc(C2CC2)n1)C1CCN(Cc2cccnc2)C1 (stereo unspecified)	-8.994
COC(=O)N1CCCC(C(=O)N(C)C)C1 (stereo unspecified)	-14.19
O=C(NCc1nncn1C1CC1)c1ccccc1OCC1CC1	-28.68
CC(C)c1ccc(OCCNC(=O)c2ccoc2)cc1	0.2691
CC(C)(C)c1n[nH]c(C2CN(C(=O)CCc3cscn3)CCO2)n1 (stereo unspecified)	-9.475
CCC(CNC(=O)CCn1cncn1)N1CCc2ccccc2C1 (stereo unspecified)	-14.75
CN1CCC(O)(CCNC(=O)[C@@]23CNC[C@@H]2CN(C2CCCC2)C3)CC1	0.09695
CSCC[C@H](N)C(=O)N1CC(Oc2ccccc2C)C1	-10.78
O=C1CCC2(CCOC2)CN1Cc1ccc2nsnc2c1 (stereo unspecified)	-35.45
COC(=O)C1CCN(C(=O)c2cc(Br)ccc2-n2cnnn2)CC1	-3.213
CN(C)c1cc(C2CCCN(S(=O)(=O)c3cn[nH]c3)C2)ccn1 (stereo unspecified)	-29.19
COc1ccc(-c2csc(N)c2C#N)cc1OC	-26.28
CN(C)Cc1csc(-c2nccn2CCc2cccnc2)c1	-24.52
CCc1ncc(C(=O)N2CCCCC2Cn2cccn2)s1 (stereo unspecified)	-5.542
O=C(NCCn1ccnc1)c1csc(Br)c1	-22.15
COCCCNC(=O)c1c(-n2cnnn2)sc2c1CCC2	-7.363
CC(C)C(=O)NCc1ccc(N(C)C)cc1	-6.598
COc1ccc(Cl)cc1CCNC(=O)NCc1noc(C)n1	-1.926
CN(C)[C@H]1COC[C@@H]2CN(Cc3ccc4c(c3)OCO4)C[C@@H]21	-41.79
COc1ccc2c(ccn2CCC(=O)Nc2nc[nH]n2)c1	-19.65
CC(C)N1CCC(Cc2cncc(-c3cccc(C(=O)O)c3)n2)CC1	-24.35
NC(=O)C(NC(=O)Cc1cnn(-c2ccccc2)n1)c1ccccc1 (stereo unspecified)	-2.578
Cc1ccc(NC(=O)CC2Cn3ncnc3NC2=O)cc1C (stereo unspecified)	-462.2
CCOCCc1nc(CCc2ccccc2)n[nH]1	-12.97
O=C(NCc1ccco1)[C@H]1COC[C@H]2CN(Cc3ccoc3)C[C@H]21	-39.41
CCc1cnc(N2C[C@H](OCc3csc(C)n3)[C@H]3COC[C@H]32)nc1	-24.21
O=C(NCC1SCCc2ccccc21)c1cscn1 (stereo unspecified)	-38.27
COCC1CN(C(=O)CC2Cc3ccccc3C2)Cc2c1cnn2C (stereo unspecified)	8.491
CC(C(=O)NC1CCN(C)CC1)n1nc(C(F)(F)F)c(Cl)c1C1CC1 (stereo unspecified)	35.83
O=C(Cc1nc(-c2ccncc2)n[nH]1)N1CCOCC1	-3.722
CCO[C@@H]1CO[C@@]2(CCCN(C(=O)c3ccc(OC)c(F)c3)C2)C1	-11.83
CC(C)(C)n1ncc(NCC(O)c2ccc(F)c(F)c2)c(Cl)c1=O (stereo unspecified)	10.57

The first 5 entries again:

{"compound": "O=C(NCCc1coc(-c2ccc(F)cc2)n1)NC1CC1", "Percent Effect": -11.15}
{"compound": "COCCN(Cc1ccoc1)C(=O)c1c(F)cccc1Cl", "Percent Effect": -13.48}
{"compound": "Cn1nc2c(cc1=O)CN(Cc1coc(-c3cccs3)n1)CC2", "Percent Effect": 6.618}
{"compound": "CCN(CC1CCOC1)C(=O)c1cccnc1N1CCOCC1", "stereo": "stereo unspecified", "Percent Effect": -10.62}
{"compound": "Cc1nnc2n1CCN(C(C(=O)N1CCCCC1)c1ccccc1)C2", "stereo": "stereo unspecified", "Percent Effect": -15.94}